Screening data

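Uptake of anthrax lethal toxin into cultured cells, read by FRET (460/530 nm ratio) and reported from the 460 nm channel; the cell line is not named here. Each compound was tested as a concentration series from about 0.0005 to 40 µM. The number is the fitted AC50 of the 460 nm signal alone; lower values mean a more potent effect. A falling signal goes with compounds filed as inhibitors or cytotoxic, a rising one with activators or fluorescent compounds (inferred from the filed classes).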

Values are in nM. Common to all entries: measured here: 460 nm channel. This is a side read-out of the assay, for part of the compounds, not drawn at random. Potencies fitted to partial, single-point or poorly fitting curves are rough. The first word of each remark tells which way the curve ran; it can be opposite to the aim of the assay.

* COc1ccc(CN2CN(C(C)C)CSC2=S)cc1 | AC50 12589 nM (rising, partial curve, poor fit)
* N=c1ccn2c(n1)O[C@H]1[C@@H](OP(=O)(O)O)[C@H](CO)O[C@H]12 | AC50 794.3 nM (rising, single point)
* CC[C@]1(O)C[C@@H]2CN(CCc3c([nH]c4ccccc34)[C@](C(=O)OC)(c3cc4c(cc3OC)N(C=O)[C@H]3[C@@](O)(C(=O)OC)[C@H](C(=O)OC)[C@@]5(CC)C=CCN6CC[C@]43[C@H]65)C2)C1 | AC50 316.2 nM (falling, full curve)
* COc1ccccc1C(c1nnnn1CCc1ccccc1)N1CCN(c2ccccc2)CC1 (stereo not shown) | AC50 10000 nM (falling, partial curve)
* Cc1ccc(C)n1-n1cnc2scc(-c3cccs3)c2c1=O | AC50 10000 nM (falling, partial curve, poor fit)
* O=S1(=O)CCC(NS(=O)(=O)c2cccc3cccnc23)C1 (stereo not shown) | AC50 398.1 nM (falling, full curve, poor fit)
* CC(C)OCCCNc1nc2c(c(=O)n(Cc3ccccc3F)c(=O)n2C)n1C | AC50 3981 nM (rising, partial curve, poor fit)
* CCOC(=O)c1sc2ccc(S(=O)(=O)N3CCCCC3)cc2c1N | AC50 125.9 nM (falling, full curve, poor fit)
* N#Cc1c(-c2ccc(Cl)cc2Cl)nc2n(c1=O)CCS2 | AC50 1585 nM (falling, full curve, poor fit)
* c1cc2cc(c1)C[n+]1ccc(c3ccccc31)NCc1ccc(cc1)CNc1cc[n+](c3ccccc13)C2 | AC50 12589 nM (falling, single point)
* O=C(c1ccccc1)c1ccc(OC(=O)N2CCOCC2)cc1 | AC50 501.2 nM (falling, partial curve)
* C=CCn1c(=O)/c(=C/c2cc(OC)c(OC)c(OC)c2)s/c1=C(/C#N)c1nc2ccccc2n1C | AC50 316.2 nM (falling, partial curve)
* O=C(CCSc1nc(-c2ccco2)cc(C(F)(F)F)n1)N1CCN(c2ccccc2)CC1 | AC50 12589 nM (falling, partial curve, poor fit)
* COc1ccc(C2=NCC(CSc3nccc(=O)[nH]3)S2)cc1 (stereo not shown) | AC50 5012 nM (rising, single point)
* COC(=O)c1[nH]c2ccccc2c1NC(=O)CNC1CCCCC1 | AC50 5012 nM (falling, single point)
* COC(=O)c1cc(C(=O)OC)cc(-n2c(C)cc(C(=O)CC#N)c2C)c1 | AC50 1585 nM (rising, partial curve)
* COc1ccc2c(c1)c(CC(=O)O)c(C)n2C(=O)c1ccc(Cl)cc1 | AC50 25118 nM (rising, single point)
* CCCC(c1c(C)n(C)n(-c2ccccc2)c1=O)c1c(C)n(C)n(-c2ccccc2)c1=O | AC50 7943 nM (rising, partial curve)
* NC(=NCCCCCCN=C(N)/N=C(\N)Nc1ccc(Cl)cc1)/N=C(\N)Nc1ccc(Cl)cc1 | AC50 31622 nM (falling, single point)
* N=c1oc2ccc3ccccc3c2cc1-c1nnc2n1CCCCC2 | AC50 10000 nM (rising, partial curve)
* Cc1c(C(=O)Nc2ccc(F)cc2)oc2ccc(S(=O)(=O)N3CCC4(CC3)OCCO4)cc12 | AC50 1995 nM (falling, full curve, poor fit)
* CS/C(=N\S(=O)(=O)c1ccc(N)cc1)NS(=O)(=O)c1cccs1 | AC50 50.12 nM (falling, full curve, poor fit)
* Cc1noc(C)c1C(=O)N1CCC[C@@]2(CCN(Cc3ccc(C#N)cc3)C2)C1 | AC50 631 nM (falling, partial curve)
* CCOC(=O)C1=C(C)NC2=C(C(=O)CCC2)C1c1cccnc1 (stereo not shown) | AC50 794.3 nM (rising, full curve, poor fit)
* Nc1cccc(-c2nc3ccc(N)cc3s2)c1 | AC50 7943 nM (rising, partial curve)
* O=c1c(-c2cc(F)cc(F)c2)nc2cnc(N3CCOCC3)nc2n1Cc1ccc(F)cc1 | AC50 501.2 nM (rising, full curve)
* O=C(On1c(-c2ccccc2)nc2ccccc2c1=O)c1ccco1 | AC50 31622 nM (falling, single point)
* O=c1cc(-c2ccc(O)c(O)c2)oc2cc(O)cc(O)c12 | AC50 31622 nM (falling, partial curve)
* COCCn1c(=O)c(-c2cccs2)nc2cnc(N3CCNCC3)nc21 | AC50 12589 nM (rising, partial curve)
* Cc1cc(NC(=O)CSc2nc(-c3ccccc3)c(C#N)c(=O)[nH]2)no1 | AC50 3.981 nM (falling, full curve, poor fit)
* O=c1[nH]cnc2nn(-c3ccccc3)nc12 | AC50 3162 nM (rising, full curve, poor fit)
* CCCCn1cc(SCC(=O)O)c2ccccc21 | AC50 25.12 nM (rising, full curve)
* Cc1cccc(OCC(=O)Nc2ccccc2N2CCCCC2)c1 | AC50 12589 nM (falling, partial curve)

From PubChem BioAssay record AID912 (NCATS, 2007).